The test system of this assay is B6C3F1 mice, intracerebral ependymoblastoma, median survival T/C. The assay can be described thus: NCI In Vivo Anticancer Drug Screen. Data for tumor model Ependymoblastoma (intracerebral) in B6C3F1 mice. The conditions noted are these: T/C endpoint: median survival time, higher T/C = longer survival. The protocol: The antitumor activity of compounds was measured in mice bearing transplantable tumors. Survival or tumor size were measured and the results are expressed as the measurement made in the treated group (T) divided by the measurement made in the vehicle treated control group (C). The tumor model used in this assay is Ependymoblastoma (intracerebral) in B6C3F1 mice

The mark [1] stands for this setting: dose: 16.0 mg/kg/injection, schedule: Q01DX005 (ip), vehicle: saline.
[2] abbreviates: dose: 64.0 mg/kg/injection, schedule: Q01DX005 (ip), vehicle: saline with Tween-80.
Setting [3] is: dose: 64.0 mg/kg/injection, schedule: Q01DX001 (ip), vehicle: saline.

The list shows only some results of the screen, not a fair sample: it gathers tests that were run many times, whatever their T/C, doses with no T/C, and many T/C values between a quarter and a half above the control. Further doses and runs are listed elsewhere. T/C gives the treated animals as a percentage of the vehicle group. Some entries give survivors of the animals treated and no T/C: the source holds a T/C of zero for them, seemingly a mark for toxic or unscored doses. Some doses without a T/C left all or most animals alive at the check, yet need not have been tolerated: the source hardly ever lists a survival T/C far under the control, and the zero likely stands for such cases as well. Survivors were counted at the toxicity check, usually on the fifth day, unless a day is given; later deaths do not show. Schedules are NCI's codes, read here as Q, the interval in days (D) or hours (H), X, the number of doses. Brackets with × give the number of equal values in this list. Some entries were tested several times; the values are given in rising order. Where survival is the endpoint, this PubChem deposit counts one and a half times the control or more as active, and values a quarter to a half above the control carry no call in these data; other NCI protocols may use other cut-offs. Some T/C values carry the count of animals alive at the toxicity check (mostly the fifth day); where none is given, no animal had died by that day.

`O=CC(NC(=O)N(CCCl)N=O)C(O)C(O)C(O)CO` (centres undefined): the T/C (dose: 0.25 mg/kg/injection, schedule: Q01DX005 (ip), vehicle: saline, evaluated on day 45) was 91 and 100 % of control; the T/C (dose: 0.25 mg/kg/injection, schedule: Q01DX005 (ip), vehicle: saline, evaluated on day 60) is 93, 97, 112 % of control; the T/C (dose: 0.5 mg/kg/injection, schedule: Q01DX005 (ip), vehicle: saline, evaluated on day 45) was 93 and 101 % of control; the T/C (dose: 0.5 mg/kg/injection, schedule: Q01DX005 (ip), vehicle: saline, evaluated on day 60) is 100 [9 of 10 alive], 103, 129 % of control; the T/C (dose: 1.0 mg/kg/injection, schedule: Q01DX005 (ip), vehicle: saline, evaluated on day 45) is 93 % of control (2×); the T/C (dose: 1.0 mg/kg/injection, schedule: Q01DX005 (ip), vehicle: saline, evaluated on day 60) is 97 and 107 % of control [9 of 10 alive]. Further, the T/C runs as follows: (dose: 1.0 mg/kg/injection, schedule: Q01DX009 (ip), vehicle: saline) 141 % of control; (dose: 2.0 mg/kg/injection, schedule: Q01DX005 (ip), vehicle: saline, evaluated on day 45) 100 and 118 % of control; (dose: 2.0 mg/kg/injection, schedule: Q01DX005 (ip), vehicle: saline, evaluated on day 60) 100, 101, 109 % of control; (dose: 2.0 mg/kg/injection, schedule: Q01DX009 (ip), vehicle: saline) 143 % of control; (dose: 4.0 mg/kg/injection, schedule: Q01DX005 (ip), vehicle: Klucel (hydroxypropylcellulose) (HPC)) 131 % of control [9 of 10 alive]; (dose: 4.0 mg/kg/injection, schedule: Q01DX005 (ip), vehicle: saline, evaluated on day 45) 113 and 128 % of control. In addition, the T/C reads like this: (dose: 4.0 mg/kg/injection, schedule: Q01DX005 (ip), vehicle: saline, evaluated on day 60) 106, 113, 129 % of control; (dose: 8.0 mg/kg/injection, schedule: Q01DX005 (ip), vehicle: Klucel (hydroxypropylcellulose) (HPC)) 128 % of control [9 of 10 alive]; (dose: 8.0 mg/kg/injection, schedule: Q01DX005 (ip), vehicle: saline, evaluated on day 45) 122 % of control; (dose: 8.0 mg/kg/injection, schedule: Q01DX005 (ip), vehicle: saline, evaluated on day 60) 123, 129, 134 % of control; (dose: 12.5 mg/kg/injection, schedule: Q01DX001 (ip), vehicle: saline) 140 % of control; (dose: 16.0 mg/kg/injection, schedule: Q01DX005 (ip), vehicle: Klucel (hydroxypropylcellulose) (HPC)) 144 % of control. Moreover, the T/C under setting [1] is 130 % of control. For the same compound, the survivor count runs as follows: (dose: 1.0 mg/kg/injection, schedule: Q01DX005 (ip), vehicle: saline) 10 of 10; (dose: 8.0 mg/kg/injection, schedule: Q01DX005 (ip), vehicle: saline) 10 of 10; (dose: 8.0 mg/kg/injection, schedule: Q01DX009 (ip), vehicle: saline) 10 of 10; under setting [1], 10 of 10 (2×); (dose: 16.0 mg/kg/injection, schedule: Q01DX009 (ip), vehicle: saline) 10 of 10; (dose: 32.0 mg/kg/injection, schedule: Q01DX009 (ip), vehicle: saline) 8 of 10. In addition, the survivor count (dose: 50.0 mg/kg/injection, schedule: Q01DX001 (ip), vehicle: saline) is on record as 10 of 10.
In the case of `CN(N=O)C(=O)Nc1c[nH]c(=O)[nH]c1=O`, the T/C is 125 % of control (dose: 8.0 mg/kg/injection, schedule: Q01DX005 (ip), vehicle: saline with Tween-80); 128 % of control (dose: 16.0 mg/kg/injection, schedule: Q01DX005 (ip), vehicle: saline with Tween-80); 142 % of control (dose: 32.0 mg/kg/injection, schedule: Q01DX005 (ip), vehicle: saline with Tween-80, evaluated on day 40); 127 % of control (dose: 32.0 mg/kg/injection, schedule: Q01DX005 (ip), vehicle: saline with Tween-80, evaluated on day 60); 143 % of control [9 of 10 alive] under setting [2]. Besides, the survivor count runs as follows: under setting [2], 10 of 10; (dose: 128.0 mg/kg/injection, schedule: Q01DX005 (ip), vehicle: saline with Tween-80) 9 of 10; (dose: 256.0 mg/kg/injection, schedule: Q01DX005 (ip), vehicle: saline with Tween-80) 0 of 10.
As for `CC([NH-])C[NH-].[Cl][Pt+2][Cl]` (centres undefined), the survivor count runs as follows: (dose: 4.0 mg/kg/injection, schedule: Q01DX005 (ip), vehicle: dextrose) 10 of 10; (dose: 8.0 mg/kg/injection, schedule: Q01DX005 (ip), vehicle: dextrose) 10 of 10; (dose: 16.0 mg/kg/injection, schedule: Q01DX005 (ip), vehicle: dextrose) 9 of 10; (dose: 32.0 mg/kg/injection, schedule: Q01DX005 (ip), vehicle: dextrose) 1 of 10.
Regarding `N[C@H](C(=O)O)[C@@H]1CC(Cl)=NO1`, the survivor count runs as follows: (dose: 32.0 mg/kg/injection, schedule: Q01DX005 (ip), vehicle: saline + Tween-80 + alcohol) 10 of 10; (dose: 32.0 mg/kg/injection, schedule: Q01DX005 (ip), vehicle: saline) 10 of 10; (dose: 64.0 mg/kg/injection, schedule: Q01DX005 (ip), vehicle: saline + Tween-80 + alcohol) 10 of 10.
Regarding `Cc1ncc(CNC(=O)N(CCCl)N=O)c(N)n1`, the T/C is 101, 102, 107, 110 (2×), 114 % of control (dose: 4.0 mg/kg/injection, schedule: Q01DX001 (ip), vehicle: saline); 101 (2×), 114, 116, 117, 128 % of control [9 of 10 alive] (dose: 8.0 mg/kg/injection, schedule: Q01DX001 (ip), vehicle: saline); 113, 118, 121, 125, 130, 131 % of control [8 of 10 alive] (dose: 16.0 mg/kg/injection, schedule: Q01DX001 (ip), vehicle: saline); 148 % of control (dose: 16.0 mg/kg/injection, schedule: Q01DX001 (ip), vehicle: water); 175, 179, 181, 185, 230 [9 of 10 alive], 250 % of control (dose: 32.0 mg/kg/injection, schedule: Q01DX001 (ip), vehicle: saline); 92, 165, 254, 300 % of control (2×) under setting [3]. The survivor count (dose: 12.5 mg/kg/injection, schedule: Q01DX009 (ip), vehicle: Klucel (hydroxypropylcellulose) (HPC)) is reported as 10 of 10; the survivor count (dose: 25.0 mg/kg/injection, schedule: Q01DX009 (ip), vehicle: Klucel (hydroxypropylcellulose) (HPC)) is 10 of 10; the survivor count (dose: 50.0 mg/kg/injection, schedule: Q01DX009 (ip), vehicle: Klucel (hydroxypropylcellulose) (HPC)) is 10 of 10; the survivor count under setting [3] was 10 of 10; the survivor count (dose: 64.0 mg/kg/injection, schedule: Q01DX001 (ip), vehicle: water) was 9 of 10 and 10 of 10; the survivor count (dose: 100.0 mg/kg/injection, schedule: Q01DX009 (ip), vehicle: Klucel (hydroxypropylcellulose) (HPC)) is recorded as 4 of 10. Also, the survivor count runs as follows: (dose: 128.0 mg/kg/injection, schedule: Q01DX001 (ip), vehicle: saline) 4 of 10 and 10 of 10; (dose: 128.0 mg/kg/injection, schedule: Q01DX001 (ip), vehicle: water) 8 of 10; (dose: 200.0 mg/kg/injection, schedule: Q01DX009 (ip), vehicle: Klucel (hydroxypropylcellulose) (HPC)) 0 of 10; (dose: 256.0 mg/kg/injection, schedule: Q01DX001 (ip), vehicle: saline) 0 of 10 and 10 of 10; (dose: 256.0 mg/kg/injection, schedule: Q01DX001 (ip), vehicle: water) 2 of 10 and 4 of 10; (dose: 400.0 mg/kg/injection, schedule: Q01DX009 (ip), vehicle: Klucel (hydroxypropylcellulose) (HPC)) 0 of 10.

The record behind these values is PubChem BioAssay AID226 (DTP/NCI, 2004).
